Assay results published in PMC10167234.
No constants are given. Whether binding was seen depends on the method and setting. In cells and extracts the contact can be indirect. A yes stands for co-enrichment or nearness to the bait. Other partners may have been found.

The chains behind the UniProt entries cited, without tags or fusion partners.
UniProt Q92922: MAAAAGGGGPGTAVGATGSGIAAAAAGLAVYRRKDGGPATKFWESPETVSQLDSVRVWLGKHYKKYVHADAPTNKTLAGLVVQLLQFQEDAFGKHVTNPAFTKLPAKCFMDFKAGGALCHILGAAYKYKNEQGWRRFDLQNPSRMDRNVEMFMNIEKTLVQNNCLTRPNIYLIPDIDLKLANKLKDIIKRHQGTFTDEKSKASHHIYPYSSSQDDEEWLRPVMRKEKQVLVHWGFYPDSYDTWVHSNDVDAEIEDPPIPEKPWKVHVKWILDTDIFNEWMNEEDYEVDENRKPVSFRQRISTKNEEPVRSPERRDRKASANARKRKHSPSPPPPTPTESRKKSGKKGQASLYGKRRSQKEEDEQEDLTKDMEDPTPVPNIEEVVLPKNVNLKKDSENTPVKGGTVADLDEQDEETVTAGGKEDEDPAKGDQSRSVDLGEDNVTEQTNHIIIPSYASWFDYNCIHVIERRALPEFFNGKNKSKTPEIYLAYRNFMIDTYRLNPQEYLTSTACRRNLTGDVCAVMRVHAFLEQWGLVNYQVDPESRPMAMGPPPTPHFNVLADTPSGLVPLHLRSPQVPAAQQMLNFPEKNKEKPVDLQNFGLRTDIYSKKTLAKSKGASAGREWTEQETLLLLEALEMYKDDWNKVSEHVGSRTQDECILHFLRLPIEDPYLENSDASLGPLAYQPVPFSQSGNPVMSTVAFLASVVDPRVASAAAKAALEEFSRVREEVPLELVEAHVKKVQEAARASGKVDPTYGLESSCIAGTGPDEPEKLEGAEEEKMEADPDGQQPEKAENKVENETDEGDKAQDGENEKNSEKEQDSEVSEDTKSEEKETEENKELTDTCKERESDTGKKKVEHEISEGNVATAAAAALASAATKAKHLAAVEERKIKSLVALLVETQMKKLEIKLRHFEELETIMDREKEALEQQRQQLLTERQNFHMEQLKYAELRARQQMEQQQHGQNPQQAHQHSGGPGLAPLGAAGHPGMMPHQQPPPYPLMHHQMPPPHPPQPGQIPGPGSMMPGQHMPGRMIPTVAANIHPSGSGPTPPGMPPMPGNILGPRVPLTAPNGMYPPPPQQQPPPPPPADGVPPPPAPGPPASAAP
UniProt P09874: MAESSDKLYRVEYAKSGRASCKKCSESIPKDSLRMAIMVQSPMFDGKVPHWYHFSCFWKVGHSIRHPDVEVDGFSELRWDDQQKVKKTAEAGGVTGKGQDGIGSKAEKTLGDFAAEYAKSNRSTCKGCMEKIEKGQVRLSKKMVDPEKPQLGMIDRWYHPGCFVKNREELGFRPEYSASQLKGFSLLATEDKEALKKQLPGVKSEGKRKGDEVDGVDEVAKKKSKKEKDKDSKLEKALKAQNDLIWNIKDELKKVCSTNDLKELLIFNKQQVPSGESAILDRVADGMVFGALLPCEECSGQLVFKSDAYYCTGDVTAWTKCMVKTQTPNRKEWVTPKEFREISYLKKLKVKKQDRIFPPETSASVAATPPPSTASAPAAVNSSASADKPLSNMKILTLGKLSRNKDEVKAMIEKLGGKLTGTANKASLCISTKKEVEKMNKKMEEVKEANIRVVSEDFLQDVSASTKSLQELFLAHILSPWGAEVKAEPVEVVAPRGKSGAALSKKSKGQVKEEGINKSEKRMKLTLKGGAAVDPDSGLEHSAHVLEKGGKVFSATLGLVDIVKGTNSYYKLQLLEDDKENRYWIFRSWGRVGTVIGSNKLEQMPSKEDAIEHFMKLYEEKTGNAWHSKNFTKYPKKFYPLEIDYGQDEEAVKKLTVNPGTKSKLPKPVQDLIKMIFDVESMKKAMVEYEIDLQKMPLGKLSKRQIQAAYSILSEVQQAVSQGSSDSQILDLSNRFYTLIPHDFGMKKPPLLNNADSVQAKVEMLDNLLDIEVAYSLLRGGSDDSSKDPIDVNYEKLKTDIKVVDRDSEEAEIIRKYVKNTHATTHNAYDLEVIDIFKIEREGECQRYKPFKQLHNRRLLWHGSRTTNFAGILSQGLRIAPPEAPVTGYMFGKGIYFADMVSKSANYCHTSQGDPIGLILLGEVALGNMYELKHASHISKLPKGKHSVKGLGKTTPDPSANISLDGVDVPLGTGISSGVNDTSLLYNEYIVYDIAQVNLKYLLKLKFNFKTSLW

Biological target: BAF155 (UniProt Q92922)
Assay: affinity purification with mass spectrometry; potential protein interactors of BAF155 identified using mass spectroscopy; sample not told in the main text

Poly(ADP-ribose) polymerase 1 (PARP1) (from UniProt P09874 1-1014)
binding: binds
